These are yes or no findings as the source states them, for the method shown. In cells and extracts the contact can be indirect. Some binding calls cover weakened binding; strength is not graded here.
Biological target: T1, Emerin (human (endogenous in DLD-1)) (UniProt P50402)
T1 sequence: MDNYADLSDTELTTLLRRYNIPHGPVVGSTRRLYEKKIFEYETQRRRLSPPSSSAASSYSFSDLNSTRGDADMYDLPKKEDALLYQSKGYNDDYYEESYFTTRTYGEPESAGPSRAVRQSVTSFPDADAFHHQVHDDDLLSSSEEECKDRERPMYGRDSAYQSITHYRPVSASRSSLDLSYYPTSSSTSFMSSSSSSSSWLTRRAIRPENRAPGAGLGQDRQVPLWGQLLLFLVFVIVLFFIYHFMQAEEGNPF
Experiment: co-IP; anti-Emerin antibody (sc25284) on 120 ug DLD-1 lysate, control (untreated or siLacZ) and Lamin A/C depleted cells (48 h post Lamin A/C Kd); Co-IP Lysis Buffer 50 mM Tris pH 8.0, 300 mM NaCl, 0.5% NP-40; overnight at 4 °C; Protein G/A-Dynabeads; blots probed for NM1 and Lamin A

Amino acid sequences for entries named in this document (tags omitted). A change or cut given only in a name is not applied to a line headed by its entry. Chains listed by the source or under a name are the forms on record and can include a tag or linker. Residues count along the entry.
UniProt P02545, residues 1-646: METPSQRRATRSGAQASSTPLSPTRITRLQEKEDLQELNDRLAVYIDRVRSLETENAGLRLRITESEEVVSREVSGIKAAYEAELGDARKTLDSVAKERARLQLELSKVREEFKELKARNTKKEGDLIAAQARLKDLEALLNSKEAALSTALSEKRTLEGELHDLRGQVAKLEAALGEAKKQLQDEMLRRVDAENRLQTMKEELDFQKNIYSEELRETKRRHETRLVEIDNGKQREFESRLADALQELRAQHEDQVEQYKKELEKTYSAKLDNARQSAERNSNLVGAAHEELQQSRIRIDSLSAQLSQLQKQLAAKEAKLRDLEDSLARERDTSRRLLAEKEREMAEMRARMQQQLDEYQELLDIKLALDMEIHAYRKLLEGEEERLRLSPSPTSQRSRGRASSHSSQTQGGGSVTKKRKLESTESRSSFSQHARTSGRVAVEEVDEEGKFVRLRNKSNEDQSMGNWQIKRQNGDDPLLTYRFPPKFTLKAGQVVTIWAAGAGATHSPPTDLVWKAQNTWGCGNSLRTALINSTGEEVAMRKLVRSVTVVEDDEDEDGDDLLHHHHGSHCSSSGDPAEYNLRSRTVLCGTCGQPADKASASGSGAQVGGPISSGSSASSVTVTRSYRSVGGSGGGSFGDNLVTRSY
Nuclear Myosin 1 (O00159-3, form named): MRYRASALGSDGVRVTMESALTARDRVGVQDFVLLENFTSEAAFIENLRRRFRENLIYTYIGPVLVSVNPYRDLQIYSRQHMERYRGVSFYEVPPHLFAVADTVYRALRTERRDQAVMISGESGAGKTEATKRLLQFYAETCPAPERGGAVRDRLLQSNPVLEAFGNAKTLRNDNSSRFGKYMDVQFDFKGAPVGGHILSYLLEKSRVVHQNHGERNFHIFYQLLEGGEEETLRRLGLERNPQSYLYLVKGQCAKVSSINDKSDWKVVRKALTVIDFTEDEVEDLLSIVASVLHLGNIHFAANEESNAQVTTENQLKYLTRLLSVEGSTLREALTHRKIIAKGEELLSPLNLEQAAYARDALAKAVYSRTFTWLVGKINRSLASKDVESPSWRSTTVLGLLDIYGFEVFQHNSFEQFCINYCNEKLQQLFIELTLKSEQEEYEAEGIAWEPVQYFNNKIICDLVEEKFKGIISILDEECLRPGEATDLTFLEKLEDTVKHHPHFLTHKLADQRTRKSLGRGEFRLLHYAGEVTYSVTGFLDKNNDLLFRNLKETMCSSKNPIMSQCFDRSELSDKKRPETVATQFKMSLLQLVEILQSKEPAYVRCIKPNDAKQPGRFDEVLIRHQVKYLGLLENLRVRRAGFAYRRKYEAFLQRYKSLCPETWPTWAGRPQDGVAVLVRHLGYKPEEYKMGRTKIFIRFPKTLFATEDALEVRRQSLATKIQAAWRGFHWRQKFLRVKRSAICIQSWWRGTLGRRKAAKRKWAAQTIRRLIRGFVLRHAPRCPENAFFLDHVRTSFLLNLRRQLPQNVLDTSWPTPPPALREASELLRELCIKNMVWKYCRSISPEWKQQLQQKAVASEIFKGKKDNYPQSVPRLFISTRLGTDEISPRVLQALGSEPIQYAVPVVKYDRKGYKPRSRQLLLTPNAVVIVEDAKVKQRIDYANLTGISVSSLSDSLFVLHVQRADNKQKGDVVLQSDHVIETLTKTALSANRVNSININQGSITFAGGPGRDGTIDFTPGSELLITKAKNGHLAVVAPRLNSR

| binding | Substance |
| --- | --- |
| binds | Lamin A (from UniProt P02545 1-646) |
| binds | Nuclear Myosin 1 (from UniProt O00159-3 1-1044) |
